The values that follow come from PubChem BioAssay AID662 (National Center for Advancing Translational Sciences (NCATS), 2007).

Molecules are shown by their SMILES. Some of the results follow. Further columns of the screen follow, without active or inactive calls. Compounds called inactive in the main read-out are mostly missing here. The note in brackets gives the kind of curve behind each potency; many fits are weak.

For orientation: AC50 means the midpoint of the concentration-response curve, whichever way the signal moves.

A short description of this test: Cell signaling CRE-BLA (Fsk stim). The settings on record: CHO CRE-bla reporter (cAMP response element driving beta-lactamase), forskolin EC10, beta-lactamase ratio; measured here: 460 nm blue channel. In a few lines:
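Reporter-gene assay: CHO cells with beta-lactamase behind cAMP responsive elements, co-treated with compound and EC10 NKH 477 for 3 hours at 37 degrees Celsius. Activity came from the 460/530 nm CCF4 emission ratio.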
Take `COCCn1c(=O)c(-c2cccc(C#N)c2)nc2cnc(Oc3cccc(Cl)c3)nc21`: the AC50 is 15.8 µM [rising, single point].

`c1ccc(Nc2nc(-c3cccs3)cs2)nc1`: the AC50 was 12.6 µM [falling, single point].

For `Cc1ccc(-c2nn3c(C)nnc3s2)cc1NC(=O)c1ccc(Br)o1`, the half-maximal activity concentration (AC50) is 12.6 µM [rising, partial curve].

Take `Brc1ccccc1-c1nc(-c2ccccc2)no1`: the AC50 was 0.316 µM [rising, full curve].

Take `OCC1N=C(c2ccccn2)OC1c1ccccc1` (configuration not stated): the AC50 was 0.126 µM [falling, full curve].

As to `COc1cccc(Cn2c(=O)c(-c3ccccc3)nc3cnc(N(C)C)nc32)c1`, the concentration at half-maximal activity (AC50) is 1.58 µM [rising, full curve].

For `O=C(CSc1nc2ccccc2[nH]1)Nc1cc(C(F)(F)F)ccc1N1CCOCC1`, the AC50 is 12.6 µM [rising, partial curve].

With `COc1ccc(-c2nc3cnc(N4CCNCC4)nc3n(-c3ccccc3)c2=O)cc1`, the AC50 was 3.98 µM [rising, full curve].

For the compound `CC(=O)NS(=O)(=O)c1ccc(NC(=O)c2ccccc2F)cc1`, the half-maximal activity concentration (AC50) is 0.00398 µM [falling, full curve, poor fit].

In the case of `O=C(Oc1ccc2c3c(c(=O)oc2c1)CCCC3)c1ccco1`, the AC50 is 15.8 µM [rising, partial curve].

With `C[C@@H](NC(=O)/C(C#N)=C/c1ccc(O)c(O)c1)c1ccccc1`, the concentration at half-maximal activity (AC50) was 25.1 µM [rising, partial curve].

Turning to `Clc1ccc2nc(NC3=NCN(CCN4CCOCC4)CN3)nc(-c3ccccc3)c2c1`, the AC50 was 25.1 µM [rising, single point].

Consider `COc1cc(-c2nnc(SCC(=O)c3cc(C)n(CC4CCCO4)c3C)o2)cc(OC)c1OC` (configuration not stated), for which the concentration at half-maximal activity (AC50) was 3.98 µM [rising, partial curve].

As for `CCOc1cc(C2NC(=O)NC(C)=C2C(=O)OCc2ccccc2)ccc1O` (configuration not stated), the AC50 is 12.6 µM [rising, single point].

With `CNCC[C@H](Oc1ccccc1OC)c1ccccc1`, the AC50 is 25.1 µM [falling, single point].

Consider `OCCCN1c2ccccc2Nc2nnc(-c3ccccc3)cc21`, for which the AC50 is 0.00794 µM [rising, full curve].

For the compound `CCOC(=O)Nc1nnc(-c2ccc(OC)c(OC)c2)s1`, the AC50 is 10 µM [rising, single point].

In the case of `COC(=O)CSc1nnc(-c2cccc(NC(=O)c3ccc(C)cc3)c2)n1C`, the concentration at half-maximal activity (AC50) is 0.00794 µM [rising, full curve, poor fit].

In the case of `CC(=O)NC(Cc1ccccc1)C(=O)NC1CCN(C(=O)c2cnccn2)CC1` (configuration not stated), the AC50 was 0.0126 µM [falling, full curve, poor fit].

In the case of `Cc1ccccc1Cn1ccc(NC(=O)c2cc3nc(-c4ccco4)cc(C(F)(F)F)n3n2)n1`, the concentration at half-maximal activity (AC50) was 3.98 µM [rising, partial curve].

As for `COc1cccc(C2Nc3ccccc3C(=O)N2O)c1O` (configuration not stated), the concentration at half-maximal activity (AC50) was 15.8 µM [falling, partial curve].

Take `CC(C)(C)n1nnnc1C(c1cccnc1)N1CCN(C2CCCCC2)CC1` (configuration not stated): the AC50 is 0.00794 µM [falling, full curve, poor fit].

Take `C=CCOC(=O)C1=C(C)NC(SCC(=O)NC(=O)OCC)=C(C#N)C1c1cccnc1` (configuration not stated): the AC50 was 10 µM [rising, partial curve].

With `COc1cc(C(=O)N2CCC(NC(=O)C(Cc3ccc(C)cc3)NC(C)=O)CC2)cc(OC)c1OC` (configuration not stated), the AC50 was 0.126 µM [falling, single point].

With `COc1ccc(O)c(C(=O)c2cc(C#N)c(=O)n(-c3c(C)n(C)n(-c4ccccc4)c3=O)c2)c1`, the AC50 was 5.01 µM [falling, single point].

For the compound `CSc1nc(N(CCO)CCO)c2sc3nc(-c4ccco4)c4c(c3c2n1)CCC4`, the AC50 was 12.6 µM [rising, partial curve].

In the case of `CC(C)(C)c1nnc2sc(SCC(=O)N3CCCc4ccccc43)nn2c1=O`, the AC50 is 0.794 µM [falling, full curve].

With `COc1cccc(/C=N/n2c(C)c3c(C)nnc(C)c3c2C)c1O`, the AC50 is 25.1 µM [falling, single point].

For `COC(=O)c1c(NC(=O)c2ccc(S(=O)(=O)N3CCOCC3)cc2)sc2c1CCN(C)C2`, the concentration at half-maximal activity (AC50) is 10 µM [rising, partial curve].

For `CCCCn1c(=NC(=O)c2cccnc2)c(C(=O)OCC)cc2c(=O)n3ccccc3nc21`, the AC50 was 12.6 µM [rising, partial curve].

`COc1ccccc1CC(NC(C)=O)C(=O)NC1CCN(c2nnnn2-c2ccccc2)CC1` (configuration not stated): the AC50 was 0.1 µM [falling, single point].

As for `CC(=O)Nc1nc(C=C(Cl)Cl)cs1`, the AC50 is 12.6 µM [falling, partial curve, poor fit].

Regarding `C=CCn1cc(C(=O)NCCCOC)c(=O)c2cc(S(=O)(=O)N(CC)CC)ccc21`, the AC50 was 12.6 µM [rising, single point].

For the compound `COc1ccccc1N1CCN(CC(O)c2ccc3cc[nH]c3c2)CC1` (configuration not stated), the AC50 was 10 µM [falling, partial curve].

Regarding `COc1cc(C2NC(=O)N(C)C3=C2C(=O)CCC3)cc(OC)c1OC` (configuration not stated), the half-maximal activity concentration (AC50) is 3.98 µM [rising, single point].

With `O=C(CN1C(=O)CCC1=O)Nc1ccc(S(=O)(=O)N2CCOCC2)cc1`, the concentration at half-maximal activity (AC50) is 0.501 µM [falling, full curve, poor fit].

With `Cc1nc(SCC(=O)NCc2ccco2)c2oc3ccccc3c2n1`, the concentration at half-maximal activity (AC50) is 7.94 µM [rising, partial curve].

Regarding `Cc1c[nH]c(=O)n(CCCN2CCN(c3ccccc3OCC(F)(F)F)CC2)c1=O`, the AC50 is 0.0251 µM [rising, full curve, poor fit].

Consider `Cc1noc(C)c1-c1nc(NC2CCNCC2)c2ccccc2n1`, for which the AC50 is 10 µM [rising, partial curve].

In the case of `O=C1CCc2cc(OCCCCc3nnnn3C3CCCCC3)ccc2N1`, the concentration at half-maximal activity (AC50) is 0.1 µM [rising, full curve, poor fit].

As to `Cc1ccc(C)c(NC(=O)CC(NCCCN2CCOCC2)C(=O)O)c1` (configuration not stated), the AC50 was 2 µM [rising, single point].

On to `CCOc1cc(C2c3c(n[nH]c3C)C(=O)N2c2ccc(Br)cc2)ccc1O` (configuration not stated), for which the half-maximal activity concentration (AC50) is 7.94 µM [falling, partial curve, poor fit].

For the compound `O=C(Nc1ccc(S(=O)(=O)NC2CCCC2)cc1)c1cnccn1`, the AC50 was 10 µM [rising, partial curve].

Take `CCOC(=O)c1c(N)nn(C(C)=O)c1-c1ccccc1`: the AC50 was 12.6 µM [rising, partial curve].

For `Cc1nc2nc(-c3ccco3)nn2c(C)c1Cl`, the half-maximal activity concentration (AC50) was 12.6 µM [rising, single point].

In the case of `CCN1CCN(c2c(Cl)cccc2NC(=O)c2ccc(Br)o2)CC1`, the concentration at half-maximal activity (AC50) was 0.631 µM [rising, full curve, poor fit].

`CCNc1ncc2nc(C)c(=O)n(C[C@H]3CCCO3)c2n1`: the AC50 is 12.6 µM [rising, partial curve].

In the case of `COc1cccc(-c2nn(C)c3sc(C(=O)N4CCN(c5ccccn5)CC4)cc23)c1`, the half-maximal activity concentration (AC50) was 3.16 µM [rising, partial curve].

Consider `Cn1c(=O)c(-c2ccc(F)cc2)nc2cnc(Nc3ccccc3)nc21`, for which the half-maximal activity concentration (AC50) is 1.58 µM [rising, full curve].

As for `CSCCOC(=O)c1[nH]c2c(c1C)C(=O)CC(c1ccco1)C2` (configuration not stated), the AC50 was 10 µM [rising, partial curve].

For the compound `CCn1c(=O)c(C(=O)NCc2ccc(OC)c(OC)c2)c(O)c2ccccc21`, the AC50 is 1.58 µM [rising, partial curve].

For the compound `O=C(NCc1ccc(Cl)cc1Cl)c1ccccn1`, the AC50 is 0.398 µM [falling, full curve, poor fit].

For the compound `Cc1nc2ccccc2c(=O)n1/N=C/c1cccnc1`, the AC50 is 20 µM [rising, single point].

For `Cc1cc(C)nc(N2CCCC(C(=O)NCCc3cccc(F)c3)C2)n1` (configuration not stated), the AC50 is 12.6 µM [falling, partial curve].

Regarding `CCOCCCNC(=O)c1cccs1`, the AC50 was 0.631 µM [falling, single point].

Turning to `CCOc1ccc(NS(=O)(=O)c2ccc3c(c2)CCN3C(=O)CCC(=O)O)cc1`, the AC50 was 0.158 µM [falling, full curve].

Regarding `N#Cc1cccc(-c2ccc3ncnc(NCc4ccccc4)c3c2)c1`, the half-maximal activity concentration (AC50) is 3.98 µM [rising, single point].

Turning to `O=C(CCn1cnc2ccccc2c1=O)Nc1cccc(Cl)c1`, the concentration at half-maximal activity (AC50) is 20 µM [rising, partial curve, poor fit].

For `Cc1cc(C)n2c(=S)[nH]nc2n1`, the half-maximal activity concentration (AC50) is 0.501 µM [falling, single point].

Consider `CCOC(=O)CC(=O)CSc1nc(C)nc2c1oc1ccccc12`, for which the AC50 is 12.6 µM [rising, partial curve].

Regarding `O=C(O)[C@H]1C[C@@H](CP(=O)(O)O)CCN1`, the AC50 was 12.6 µM [falling, single point].

For the compound `CCCn1c(=N)c(C(=O)NCc2ccc3c(c2)OCO3)cc2c(=O)n3cccc(C)c3nc21`, the AC50 is 20 µM [rising, single point].

For the compound `CCCOc1ccc(-c2nc(C#N)c(N3CCN(C)CC3)o2)cc1`, the AC50 is 10 µM [rising, partial curve].

As to `COc1ccc2c(CSc3nc4nc(C)cc(C)n4n3)cc(=O)oc2c1`, the AC50 is 10 µM [rising, partial curve].

With `COc1cc(C(=O)NCc2nnc(SCC(=O)Nc3cc(C)cc(C)c3)o2)cc(OC)c1OC`, the AC50 is 25.1 µM [rising, single point].

Consider `Cc1cc(C)c2nc(N3CCCN(C(=O)c4cnccn4)CC3)c(C#N)cc2c1`, for which the AC50 was 12.6 µM [rising, partial curve].

As to `Cc1cc(Nc2cc(F)ccc2C)n2ncnc2n1`, the AC50 is 12.6 µM [rising, single point].
